Laboratory results taken from the supplement of paper PMC10849652.
Some of the results follow.

By UniProt entry, the sequences of proteins in these tests, tags left out. Where a name states a change or a piece, a line headed by the entry shows the natural chain unless it says otherwise.
UniProt Q9H993: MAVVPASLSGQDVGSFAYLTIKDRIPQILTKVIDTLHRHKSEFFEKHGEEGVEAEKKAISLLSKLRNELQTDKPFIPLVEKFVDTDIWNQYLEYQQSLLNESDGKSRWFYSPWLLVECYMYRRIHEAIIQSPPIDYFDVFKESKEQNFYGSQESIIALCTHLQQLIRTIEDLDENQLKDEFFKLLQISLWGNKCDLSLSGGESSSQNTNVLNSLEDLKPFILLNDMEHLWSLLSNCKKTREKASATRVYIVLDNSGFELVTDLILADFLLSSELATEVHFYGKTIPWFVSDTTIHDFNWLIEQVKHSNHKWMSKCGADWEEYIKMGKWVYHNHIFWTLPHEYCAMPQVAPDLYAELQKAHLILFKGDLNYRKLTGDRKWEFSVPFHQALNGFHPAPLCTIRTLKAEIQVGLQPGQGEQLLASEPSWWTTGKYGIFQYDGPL
UniProt Q7Z2E3: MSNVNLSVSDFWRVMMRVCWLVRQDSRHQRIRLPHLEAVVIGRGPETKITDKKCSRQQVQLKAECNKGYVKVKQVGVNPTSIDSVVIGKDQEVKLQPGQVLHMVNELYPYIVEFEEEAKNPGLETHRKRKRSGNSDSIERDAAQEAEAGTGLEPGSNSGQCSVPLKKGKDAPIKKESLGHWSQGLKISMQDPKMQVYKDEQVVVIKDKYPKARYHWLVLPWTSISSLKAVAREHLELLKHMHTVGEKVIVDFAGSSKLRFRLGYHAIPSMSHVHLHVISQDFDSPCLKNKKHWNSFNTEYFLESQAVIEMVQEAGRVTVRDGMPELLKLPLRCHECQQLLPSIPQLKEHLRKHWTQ
UniProt Q9NRW3: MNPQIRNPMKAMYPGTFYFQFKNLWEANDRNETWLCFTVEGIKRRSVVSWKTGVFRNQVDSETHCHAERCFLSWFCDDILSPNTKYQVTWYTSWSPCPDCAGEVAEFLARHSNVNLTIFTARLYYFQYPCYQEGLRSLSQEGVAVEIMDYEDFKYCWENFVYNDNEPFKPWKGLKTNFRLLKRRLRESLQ
UniProt P42331: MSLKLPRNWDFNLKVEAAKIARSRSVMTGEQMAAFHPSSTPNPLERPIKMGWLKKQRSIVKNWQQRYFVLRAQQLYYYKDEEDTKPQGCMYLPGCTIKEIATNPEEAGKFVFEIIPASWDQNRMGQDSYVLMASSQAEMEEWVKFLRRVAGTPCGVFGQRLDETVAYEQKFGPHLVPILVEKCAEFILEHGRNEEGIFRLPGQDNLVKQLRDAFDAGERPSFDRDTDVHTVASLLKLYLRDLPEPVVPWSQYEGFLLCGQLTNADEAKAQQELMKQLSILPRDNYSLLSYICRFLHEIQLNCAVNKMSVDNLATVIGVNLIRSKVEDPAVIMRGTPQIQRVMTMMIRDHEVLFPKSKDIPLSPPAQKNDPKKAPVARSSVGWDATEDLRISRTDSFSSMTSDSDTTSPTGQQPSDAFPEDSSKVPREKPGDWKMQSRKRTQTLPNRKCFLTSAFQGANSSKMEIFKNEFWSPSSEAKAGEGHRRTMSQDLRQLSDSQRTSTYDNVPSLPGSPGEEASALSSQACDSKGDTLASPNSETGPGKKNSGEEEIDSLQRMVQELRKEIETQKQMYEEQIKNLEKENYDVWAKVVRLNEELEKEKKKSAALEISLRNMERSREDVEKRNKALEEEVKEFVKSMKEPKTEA
UniProt P61204: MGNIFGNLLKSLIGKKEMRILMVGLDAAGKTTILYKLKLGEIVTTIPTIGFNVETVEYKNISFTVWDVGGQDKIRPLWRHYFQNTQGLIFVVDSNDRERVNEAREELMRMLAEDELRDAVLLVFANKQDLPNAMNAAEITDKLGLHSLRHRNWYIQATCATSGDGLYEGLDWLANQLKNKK
UniProt Q9NP61: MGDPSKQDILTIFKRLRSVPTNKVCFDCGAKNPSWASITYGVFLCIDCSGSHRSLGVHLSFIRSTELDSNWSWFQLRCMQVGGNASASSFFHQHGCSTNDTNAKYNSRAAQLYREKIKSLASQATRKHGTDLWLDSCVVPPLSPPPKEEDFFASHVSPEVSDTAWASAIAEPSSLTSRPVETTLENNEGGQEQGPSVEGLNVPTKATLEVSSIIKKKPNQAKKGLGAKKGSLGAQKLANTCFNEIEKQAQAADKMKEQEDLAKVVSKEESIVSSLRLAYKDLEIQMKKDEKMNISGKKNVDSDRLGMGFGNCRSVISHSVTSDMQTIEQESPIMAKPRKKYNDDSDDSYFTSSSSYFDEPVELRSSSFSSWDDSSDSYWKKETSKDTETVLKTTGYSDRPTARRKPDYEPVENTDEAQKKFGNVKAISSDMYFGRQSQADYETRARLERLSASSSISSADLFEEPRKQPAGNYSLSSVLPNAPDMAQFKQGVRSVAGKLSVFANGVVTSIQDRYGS
UniProt Q92747, whole entry, looked up: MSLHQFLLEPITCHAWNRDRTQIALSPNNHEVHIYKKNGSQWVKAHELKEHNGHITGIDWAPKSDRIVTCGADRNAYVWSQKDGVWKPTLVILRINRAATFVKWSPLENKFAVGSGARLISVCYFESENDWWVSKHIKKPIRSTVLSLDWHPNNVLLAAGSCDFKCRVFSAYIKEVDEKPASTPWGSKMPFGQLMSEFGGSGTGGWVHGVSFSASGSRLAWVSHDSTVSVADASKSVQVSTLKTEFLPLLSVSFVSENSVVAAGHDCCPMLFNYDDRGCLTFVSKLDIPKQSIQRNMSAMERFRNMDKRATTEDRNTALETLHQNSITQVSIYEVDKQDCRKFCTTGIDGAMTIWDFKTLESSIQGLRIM
UniProt P15848: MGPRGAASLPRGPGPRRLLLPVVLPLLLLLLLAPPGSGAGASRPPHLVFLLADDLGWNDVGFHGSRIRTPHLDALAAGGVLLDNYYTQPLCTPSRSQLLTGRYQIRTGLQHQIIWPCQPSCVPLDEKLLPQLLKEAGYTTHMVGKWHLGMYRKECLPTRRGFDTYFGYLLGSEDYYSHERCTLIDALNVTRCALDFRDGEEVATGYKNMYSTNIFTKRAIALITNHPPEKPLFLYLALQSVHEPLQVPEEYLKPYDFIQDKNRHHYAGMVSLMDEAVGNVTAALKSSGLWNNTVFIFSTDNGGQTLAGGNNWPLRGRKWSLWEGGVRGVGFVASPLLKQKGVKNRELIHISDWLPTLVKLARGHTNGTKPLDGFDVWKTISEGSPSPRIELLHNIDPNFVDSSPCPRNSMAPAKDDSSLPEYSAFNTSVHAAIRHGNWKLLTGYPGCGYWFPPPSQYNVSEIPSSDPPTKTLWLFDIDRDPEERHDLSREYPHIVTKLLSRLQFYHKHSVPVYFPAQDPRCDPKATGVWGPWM
UniProt O43182: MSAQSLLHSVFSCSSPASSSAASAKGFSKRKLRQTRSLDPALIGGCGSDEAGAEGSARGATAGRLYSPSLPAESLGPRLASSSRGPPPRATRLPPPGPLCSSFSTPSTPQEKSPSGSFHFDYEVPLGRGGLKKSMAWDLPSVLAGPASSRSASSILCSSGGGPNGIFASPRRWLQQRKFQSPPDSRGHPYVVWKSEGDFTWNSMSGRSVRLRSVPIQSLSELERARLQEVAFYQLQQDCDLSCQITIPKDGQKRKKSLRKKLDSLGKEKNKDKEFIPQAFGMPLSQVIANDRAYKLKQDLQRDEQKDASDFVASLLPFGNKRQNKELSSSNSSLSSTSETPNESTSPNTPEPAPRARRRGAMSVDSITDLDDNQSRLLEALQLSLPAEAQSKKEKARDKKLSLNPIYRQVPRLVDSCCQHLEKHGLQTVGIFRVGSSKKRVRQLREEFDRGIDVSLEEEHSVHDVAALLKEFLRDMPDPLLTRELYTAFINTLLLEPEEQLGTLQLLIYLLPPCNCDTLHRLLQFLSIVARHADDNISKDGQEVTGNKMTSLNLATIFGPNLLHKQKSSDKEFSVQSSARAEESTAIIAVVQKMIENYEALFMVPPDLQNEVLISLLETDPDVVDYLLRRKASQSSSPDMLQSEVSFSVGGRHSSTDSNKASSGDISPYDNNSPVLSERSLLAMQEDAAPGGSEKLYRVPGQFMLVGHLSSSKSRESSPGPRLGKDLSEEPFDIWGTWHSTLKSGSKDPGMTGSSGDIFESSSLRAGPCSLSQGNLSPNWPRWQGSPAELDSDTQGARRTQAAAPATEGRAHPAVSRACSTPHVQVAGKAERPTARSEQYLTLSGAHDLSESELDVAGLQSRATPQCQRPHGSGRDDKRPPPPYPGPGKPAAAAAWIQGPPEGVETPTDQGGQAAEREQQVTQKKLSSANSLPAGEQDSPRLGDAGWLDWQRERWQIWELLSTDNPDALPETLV
UniProt Q8N5I2: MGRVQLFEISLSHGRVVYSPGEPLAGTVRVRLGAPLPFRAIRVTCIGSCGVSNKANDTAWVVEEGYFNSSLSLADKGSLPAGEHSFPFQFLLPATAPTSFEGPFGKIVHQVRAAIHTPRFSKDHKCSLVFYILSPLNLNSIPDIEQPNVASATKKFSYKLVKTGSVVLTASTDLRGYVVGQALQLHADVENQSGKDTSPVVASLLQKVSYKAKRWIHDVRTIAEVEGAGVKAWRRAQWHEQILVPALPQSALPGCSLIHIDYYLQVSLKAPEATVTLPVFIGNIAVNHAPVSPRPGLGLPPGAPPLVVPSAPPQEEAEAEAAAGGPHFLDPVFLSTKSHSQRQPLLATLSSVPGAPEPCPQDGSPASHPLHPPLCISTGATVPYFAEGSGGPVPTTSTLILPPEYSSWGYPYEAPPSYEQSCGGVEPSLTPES
UniProt P10398: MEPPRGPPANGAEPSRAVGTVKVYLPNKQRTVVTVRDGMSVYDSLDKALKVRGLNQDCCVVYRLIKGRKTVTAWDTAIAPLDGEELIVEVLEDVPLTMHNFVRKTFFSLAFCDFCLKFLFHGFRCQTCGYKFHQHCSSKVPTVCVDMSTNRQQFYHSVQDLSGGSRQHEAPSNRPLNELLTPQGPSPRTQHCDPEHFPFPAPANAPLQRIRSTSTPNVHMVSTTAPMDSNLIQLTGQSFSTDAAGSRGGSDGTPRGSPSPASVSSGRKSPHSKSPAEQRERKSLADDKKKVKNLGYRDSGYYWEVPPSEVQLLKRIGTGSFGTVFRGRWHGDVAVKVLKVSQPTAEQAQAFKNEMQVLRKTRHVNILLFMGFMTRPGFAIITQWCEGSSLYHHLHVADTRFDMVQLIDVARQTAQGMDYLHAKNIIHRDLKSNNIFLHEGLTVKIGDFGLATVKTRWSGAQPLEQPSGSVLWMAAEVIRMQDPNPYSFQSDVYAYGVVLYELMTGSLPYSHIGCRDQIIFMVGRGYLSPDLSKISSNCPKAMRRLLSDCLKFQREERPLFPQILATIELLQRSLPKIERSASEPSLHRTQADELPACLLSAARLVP
UniProt Q96AK3: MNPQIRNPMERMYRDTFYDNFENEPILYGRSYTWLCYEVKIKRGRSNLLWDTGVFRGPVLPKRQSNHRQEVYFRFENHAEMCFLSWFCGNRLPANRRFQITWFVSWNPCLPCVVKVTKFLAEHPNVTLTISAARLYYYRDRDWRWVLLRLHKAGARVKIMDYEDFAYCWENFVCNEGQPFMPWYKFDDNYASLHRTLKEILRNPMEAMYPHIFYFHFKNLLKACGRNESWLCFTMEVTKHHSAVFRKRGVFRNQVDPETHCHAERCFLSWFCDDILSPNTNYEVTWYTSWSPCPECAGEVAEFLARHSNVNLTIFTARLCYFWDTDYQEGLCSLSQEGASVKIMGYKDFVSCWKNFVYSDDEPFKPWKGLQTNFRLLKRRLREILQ
UniProt P36404: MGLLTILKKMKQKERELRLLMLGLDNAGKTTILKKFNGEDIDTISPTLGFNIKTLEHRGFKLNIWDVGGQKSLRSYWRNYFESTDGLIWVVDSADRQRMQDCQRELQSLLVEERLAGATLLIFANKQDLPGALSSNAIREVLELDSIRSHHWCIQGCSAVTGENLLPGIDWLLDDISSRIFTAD
UniProt Q96GX9: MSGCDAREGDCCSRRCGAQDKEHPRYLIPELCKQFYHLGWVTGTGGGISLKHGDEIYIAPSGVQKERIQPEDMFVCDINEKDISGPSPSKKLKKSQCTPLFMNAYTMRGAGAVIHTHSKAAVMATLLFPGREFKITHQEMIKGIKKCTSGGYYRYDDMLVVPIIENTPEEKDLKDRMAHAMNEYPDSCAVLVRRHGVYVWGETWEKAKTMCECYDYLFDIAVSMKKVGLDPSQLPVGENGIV

What was measured:
Experiment in all cases: log2 fold change, soluble protein after heating vs DMSO (PISA); higher = thermal stabilisation; K562 lysate, 10 uM; active = over 0.2 and 3.5 SD of the protein, either way, in both replicates (recomputed)
[1] = compound: C=CC(=O)N1CCC[C@@H](n2nc(-c3ccc(Oc4ccccc4)cc3)c3c(N)ncnc32)C1 [ibrutinib]
Outline: (§1)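 Following dounce homogenisation of K562 pellets in PBS pH 7.4 with 1 mM MgCl2, crude extract at 1 mg/mL protein was incubated for 30 min with 10 μM compound. Aliquots were then heated for 3 min over 48°C-58°C and pooled, NP-40 was added to 0.5% at 4°C, and soluble protein was recovered as the supernatant at 21,000xg for 90 min. Channel-sum-equalised TMTpro 16plex LC-MS/MS quantified this protein. Each value, from duplicates, is a log-two fold change in thermal stability relative to solvent controls.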

[2] = compound: CC(=O)c1cnc2ccc(-c3cc(Cl)c(O)c(Cl)c3)nc2c1N[C@H]1CC[C@H](CN(C)C)CC1
Outline: as §1

[3] = compound: CC(C)(C)Cn1c(N)nc2ccc(-c3[nH]c(C(C)(C)C)nc3-c3ccc(F)cc3)nc21 [ralimetinib]
Outline: as §1

[4] = compound: CC(C)(O)CC(=O)NCCn1ccc2ncnc(Nc3ccc(Oc4cccc(C(F)(F)F)c4)c(Cl)c3)c21
Outline: as §1

[5] = compound: CC(C)C1=C2N=C(C=C(N2N=C1)NCC3=CC=CC=C3)NCCCCCCN
Outline: as §1

[6] = compound: CC1=C(C(CC(=O)N1)C2=CC=C(C=C2)C(F)(F)F)C(=O)NC3=C(C=C4C(=C3)C=NN4)F
Outline: as §1

[7] = compound: CC1=C(C2=C(C=C1)C(=O)C3=CC=CC=C3N2CCCN)C
Outline: as §1

[8] = compound: CC1=C(C=C(C=C1)NC(=O)C2=CC(=CC=C2)C(C)(C)C#N)NC3=CC4=C(C=C3)N=CN(C4=O)C
Outline: as §1

[9] = compound: CC1=C(C=C(C=C1)NC(=O)C2=CC(=CC=C2)N(C)C)NC(=O)C3=CC=C(C=C3)O
Outline: as §1

[10] = compound: CC1=CC=C(C=C1)SC2=C3C=C(SC3=CN=C2)C(=O)N
Outline: as §1

[11] = compound: CCCS(=O)(=O)Nc1ccc(F)c(C(=O)c2c[nH]c3ncc(-c4ccc(Cl)cc4)cc23)c1F [vemurafenib]
Outline: as §1

[12] = compound: CCCS(=O)(=O)Nc1ccc(F)c(C(=O)c2c[nH]c3ncc(Cl)cc23)c1F
Outline: as §1

[13] = compound: CCN(CCCOc1ccc2c(Nc3cc(CC(=O)Nc4cccc(F)c4)[nH]n3)ncnc2c1)CCOP(=O)(O)O [barasertib]
Outline: as §1

[14] = compound: CC[C@@H]1C(=O)N(C)c2cnc(Nc3ccc(C(=O)NC4CCN(C)CC4)cc3OC)nc2N1C1CCCC1
Outline: as §1

[15] = compound: CC[C@@H]1C(=O)N(C)c2cnc(Nc3ccc(C(=O)N[C@H]4CC[C@H](N5CCN(CC6CC6)CC5)CC4)cc3OC)nc2N1C(C)C [volasertib]
Outline: as §1

[16] = compound: CCn1c(C(=O)N(C2CC2)C2CC2)cc2c3c(ncn3C)c(Nc3cc(C)n(C)n3)nc21
Outline: as §1

[17] = compound: CCn1cc(-c2ccnc3[nH]c(-c4cccc(CN(C)C)c4)cc23)c(-c2ccc(NC(=O)N(C)C)cc2)n1
Outline: as §1

[18] = compound: CN1CCC(CNc2ccc3ncc(-c4cccc(OC(F)(F)F)c4)n3n2)CC1
Outline: as §1

[19] = compound: CN1CCN(CCOc2cc(OC3CCOCC3)c3c(Nc4c(Cl)ccc5c4OCO5)ncnc3c2)CC1 [saracatinib]
Outline: as §1

[20] = compound: CN1CCN(c2nc(C3=C(c4c[nH]c5ccccc45)C(=O)NC3=O)c3ccccc3n2)CC1 [sotrastaurin]
Outline: as §1

Measured: log2 fold change

ARMT1 (UniProt Q9H993)
inactive: [1] -0.012 | [2] -0.003 | [3] 0.002 | [4] -0.01 | [5] 0 | [6] -0.06 | [7] 0.036 | [8] 0.013 | [9] 0.021 | [10] 0.016 | [11] 0.013 | [12] 0.016 | [13] -0.029 | [14] -0.03 | [15] -0.094 | [16] 0.016 | [17] 0.01 | [18] -0.074 | [19] 0.037 | [20] 0.039

APTX (UniProt Q7Z2E3)
inactive: [1] -0.033 | [2] 0.1 | [3] -0.006 | [4] -0.068 | [5] -0.042 | [6] -0.015 | [7] -0.074 | [8] 0.011 | [9] 0.063 | [10] 0.088 | [11] -0.032 | [12] 0.019 | [13] -0.003 | [14] 0.087 | [15] -0.12 | [16] -0.015 | [17] 0.073 | [18] -0.047 | [19] -0.022 | [20] 0.07

APOBEC3C (UniProt Q9NRW3)
inactive: [1] -0.024 | [2] -0.047 | [3] 0.005 | [4] -0.051 | [5] -0.01 | [6] 0 | [7] -0.025 | [8] 0.046 | [9] 0.019 | [10] -0.01 | [11] -0.027 | [12] 0.021 | [13] -0.006 | [14] 0.075 | [15] -0.014 | [16] -0.081 | [17] -0.038 | [18] 0.034 | [19] 0.018 | [20] 0.114

ARHGAP25 isoform 4 (UniProt P42331)
inactive: [1] 0.016 | [2] 0.036 | [3] 0.026 | [4] -0.003 | [5] -0.026 | [6] 0.064 | [7] -0.014 | [8] 0.117 | [9] 0.059 | [10] -0.006 | [11] 0.021 | [12] 0.049 | [13] 0.081 | [14] -0.045 | [15] -0.029 | [16] -0.032 | [17] -0.012 | [18] 0.019 | [19] -0.034 | [20] 0.043

ARF3 (UniProt P61204)
inactive: [1] 0.078 | [2] 0.009 | [3] 0.023 | [4] -0.007 | [5] -0.011 | [6] -0.017 | [7] -0.02 | [8] 0.052 | [9] -0.044 | [10] -0.013 | [11] -0.003 | [12] 0.001 | [13] 0.069 | [14] 0.027 | [15] 0.024 | [16] -0.013 | [17] -0.135 | [18] 0.097 | [19] -0.023 | [20] 0.005

ARFGAP3 (UniProt Q9NP61)
inactive: [1] -0.004 | [2] -0.012 | [3] 0.009 | [4] 0.025 | [5] 0.001 | [6] 0.023 | [7] 0 | [8] 0.055 | [9] -0.021 | [10] -0.024 | [11] -0.038 | [12] 0 | [13] -0.012 | [14] 0.119 | [15] 0.033 | [16] -0.013 | [17] -0.009 | [18] 0.014 | [19] -0.008 | [20] 0

ARPC1A (UniProt Q92747)
inactive: [1] 0.005 | [2] 0.003 | [3] -0.002 | [4] -0.056 | [5] -0.02 | [6] 0.045 | [7] 0.004 | [8] 0.002 | [9] -0.033 | [10] -0.001 | [11] 0.018 | [12] -0.011 | [13] 0.015 | [14] 0.076 | [15] 0.011 | [16] -0.007 | [17] -0.228 | [18] 0.12 | [19] 0.014 | [20] -0.031

ARSB (UniProt P15848)
inactive: [1] -0.087 | [2] -0.022 | [3] 0.001 | [4] -0.042 | [5] -0.136 | [6] -0.051 | [7] 0.049 | [8] 0.022 | [9] -0.014 | [10] -0.009 | [11] 0.061 | [12] 0.014 | [13] 0.079 | [14] -0.001 | [15] 0.004 | [16] 0.035 | [17] -0.139 | [18] -0.013 | [19] 0.023 | [20] -0.001

ARHGAP6 (UniProt O43182)
inactive: [1] 0.081 | [2] -0.008 | [3] -0.018 | [4] -0.038 | [5] -0.017 | [6] 0.101 | [7] -0.007 | [8] 0.002 | [9] 0.01 | [10] -0.018 | [11] 0.074 | [12] 0.038 | [13] 0.116 | [14] -0.038 | [15] -0.107 | [16] -0.014 | [17] 0.072 | [18] -0.139 | [19] 0.031 | [20] -0.049

ARRDC1 (UniProt Q8N5I2)
inactive: [1] 0.048 | [2] -0.024 | [3] 0.017 | [4] 0.003 | [5] 0.01 | [6] 0.055 | [7] 0 | [8] 0.017 | [9] 0.1 | [10] 0.035 | [11] 0.007 | [12] -0.006 | [13] -0.102 | [14] -0.004 | [15] 0.052 | [16] 0.05 | [17] -0.116 | [18] -0.024 | [19] -0.045 | [20] 0.066

ARAF (UniProt P10398)
inactive: [1] 0.071 | [2] -0.012 | [3] 0.029 | [4] -0.01 | [5] 0.058 | [6] -0.007 | [7] 0.004 | [8] 0.004 | [9] 0.041 | [10] 0.003 | [12] 0.058 | [13] 0.015 | [14] -0.069 | [15] -0.038 | [16] -0.015 | [17] 0.042 | [18] 0 | [19] 0.005 | [20] 0.002
active: [11] 0.411

ARPC3 (UniProt O15145)
inactive: [1] 0.043 | [2] 0.013 | [3] -0.027 | [4] 0.017 | [5] -0.019 | [6] -0.016 | [7] 0.013 | [8] -0.047 | [9] -0.031 | [10] 0.015 | [11] 0.016 | [12] 0.036 | [13] -0.006 | [14] 0.014 | [15] -0.005 | [16] 0.044 | [17] 0.039 | [18] -0.072 | [19] 0.021 | [20] -0.011

APOBEC3D (UniProt Q96AK3)
inactive: [1] -0.087 | [2] -0.022 | [3] -0.037 | [4] -0.01 | [5] 0.098 | [6] -0.007 | [7] -0.034 | [8] 0.032 | [9] 0.032 | [10] 0.05 | [11] 0.033 | [12] 0.084 | [13] 0.019 | [14] -0.013 | [15] -0.02 | [16] 0.04 | [17] -0.085 | [18] 0.033 | [19] -0.089 | [20] 0.028

ARL2 (UniProt P36404)
inactive: [1] -0.002 | [2] 0.011 | [3] -0.015 | [4] -0.032 | [5] 0.001 | [6] -0.006 | [7] -0.023 | [8] -0.016 | [9] -0.013 | [10] 0.003 | [11] 0.037 | [12] -0.001 | [13] 0.049 | [14] -0.084 | [15] -0.018 | [16] -0.004 | [17] -0.033 | [18] 0 | [19] -0.001 | [20] 0.077

Quoted from the results shown (two entries):
ARPC3 (UniProt O15145)
inactive: [1] 0.043 | [2] 0.013 | [3] -0.027 | [4] 0.017 | [5] -0.019 | [6] -0.016 | [7] 0.013 | [8] -0.047 | [9] -0.031 | [10] 0.015 | [11] 0.016 | [12] 0.036 | [13] -0.006 | [14] 0.014 | [15] -0.005 | [16] 0.044 | [17] 0.039 | [18] -0.072 | [19] 0.021 | [20] -0.011

APOBEC3D (UniProt Q96AK3)
inactive: [1] -0.087 | [2] -0.022 | [3] -0.037 | [4] -0.01 | [5] 0.098 | [6] -0.007 | [7] -0.034 | [8] 0.032 | [9] 0.032 | [10] 0.05 | [11] 0.033 | [12] 0.084 | [13] 0.019 | [14] -0.013 | [15] -0.02 | [16] 0.04 | [17] -0.085 | [18] 0.033 | [19] -0.089 | [20] 0.028

(list continues)

APIP (UniProt Q96GX9)
inactive: [1] -0.031 | [2] -0.009 | [3] 0.05 | [4] -0.004 | [5] 0.004 | [6] 0.006 | [7] 0 | [8] 0.005 | [9] -0.048 | [10] -0.04 | [11] -0.009 | [12] 0.024 | [13] 0.095 | [14] 0.041 | [15] 0.038 | [16] -0.058 | [17] -0.145 | [18] 0.135 | [19] 0.021 | [20] -0.035

ARPC5 (UniProt O15511)
inactive: [1] -0.012 | [2] -0.019 | [3] -0.018 | [4] -0.014 | [5] -0.009 | [6] 0.021 | [7] 0.003 | [8] -0.01 | [9] 0 | [10] -0.036 | [11] -0.01 | [12] -0.066 | [13] 0.007 | [14] 0.048 | [15] 0.04 | [16] -0.011 | [17] -0.053 | [18] 0.005 | [19] -0.035 | [20] 0.024
